Results published in publication PMC3828775.
No constants are given. Whether binding was seen depends on the method and setting. In cells and extracts the contact can be indirect. Some entries that bind do so weakly or less than the wild type. For some assays here: Tags and fused reporters may be left off the sequences shown.

By UniProt entry, the sequences of proteins in these tests, tags left out. Where a name states a change or a piece, a line headed by the entry shows the natural chain unless it says otherwise. Residues count along the entry.
UniProt P49792: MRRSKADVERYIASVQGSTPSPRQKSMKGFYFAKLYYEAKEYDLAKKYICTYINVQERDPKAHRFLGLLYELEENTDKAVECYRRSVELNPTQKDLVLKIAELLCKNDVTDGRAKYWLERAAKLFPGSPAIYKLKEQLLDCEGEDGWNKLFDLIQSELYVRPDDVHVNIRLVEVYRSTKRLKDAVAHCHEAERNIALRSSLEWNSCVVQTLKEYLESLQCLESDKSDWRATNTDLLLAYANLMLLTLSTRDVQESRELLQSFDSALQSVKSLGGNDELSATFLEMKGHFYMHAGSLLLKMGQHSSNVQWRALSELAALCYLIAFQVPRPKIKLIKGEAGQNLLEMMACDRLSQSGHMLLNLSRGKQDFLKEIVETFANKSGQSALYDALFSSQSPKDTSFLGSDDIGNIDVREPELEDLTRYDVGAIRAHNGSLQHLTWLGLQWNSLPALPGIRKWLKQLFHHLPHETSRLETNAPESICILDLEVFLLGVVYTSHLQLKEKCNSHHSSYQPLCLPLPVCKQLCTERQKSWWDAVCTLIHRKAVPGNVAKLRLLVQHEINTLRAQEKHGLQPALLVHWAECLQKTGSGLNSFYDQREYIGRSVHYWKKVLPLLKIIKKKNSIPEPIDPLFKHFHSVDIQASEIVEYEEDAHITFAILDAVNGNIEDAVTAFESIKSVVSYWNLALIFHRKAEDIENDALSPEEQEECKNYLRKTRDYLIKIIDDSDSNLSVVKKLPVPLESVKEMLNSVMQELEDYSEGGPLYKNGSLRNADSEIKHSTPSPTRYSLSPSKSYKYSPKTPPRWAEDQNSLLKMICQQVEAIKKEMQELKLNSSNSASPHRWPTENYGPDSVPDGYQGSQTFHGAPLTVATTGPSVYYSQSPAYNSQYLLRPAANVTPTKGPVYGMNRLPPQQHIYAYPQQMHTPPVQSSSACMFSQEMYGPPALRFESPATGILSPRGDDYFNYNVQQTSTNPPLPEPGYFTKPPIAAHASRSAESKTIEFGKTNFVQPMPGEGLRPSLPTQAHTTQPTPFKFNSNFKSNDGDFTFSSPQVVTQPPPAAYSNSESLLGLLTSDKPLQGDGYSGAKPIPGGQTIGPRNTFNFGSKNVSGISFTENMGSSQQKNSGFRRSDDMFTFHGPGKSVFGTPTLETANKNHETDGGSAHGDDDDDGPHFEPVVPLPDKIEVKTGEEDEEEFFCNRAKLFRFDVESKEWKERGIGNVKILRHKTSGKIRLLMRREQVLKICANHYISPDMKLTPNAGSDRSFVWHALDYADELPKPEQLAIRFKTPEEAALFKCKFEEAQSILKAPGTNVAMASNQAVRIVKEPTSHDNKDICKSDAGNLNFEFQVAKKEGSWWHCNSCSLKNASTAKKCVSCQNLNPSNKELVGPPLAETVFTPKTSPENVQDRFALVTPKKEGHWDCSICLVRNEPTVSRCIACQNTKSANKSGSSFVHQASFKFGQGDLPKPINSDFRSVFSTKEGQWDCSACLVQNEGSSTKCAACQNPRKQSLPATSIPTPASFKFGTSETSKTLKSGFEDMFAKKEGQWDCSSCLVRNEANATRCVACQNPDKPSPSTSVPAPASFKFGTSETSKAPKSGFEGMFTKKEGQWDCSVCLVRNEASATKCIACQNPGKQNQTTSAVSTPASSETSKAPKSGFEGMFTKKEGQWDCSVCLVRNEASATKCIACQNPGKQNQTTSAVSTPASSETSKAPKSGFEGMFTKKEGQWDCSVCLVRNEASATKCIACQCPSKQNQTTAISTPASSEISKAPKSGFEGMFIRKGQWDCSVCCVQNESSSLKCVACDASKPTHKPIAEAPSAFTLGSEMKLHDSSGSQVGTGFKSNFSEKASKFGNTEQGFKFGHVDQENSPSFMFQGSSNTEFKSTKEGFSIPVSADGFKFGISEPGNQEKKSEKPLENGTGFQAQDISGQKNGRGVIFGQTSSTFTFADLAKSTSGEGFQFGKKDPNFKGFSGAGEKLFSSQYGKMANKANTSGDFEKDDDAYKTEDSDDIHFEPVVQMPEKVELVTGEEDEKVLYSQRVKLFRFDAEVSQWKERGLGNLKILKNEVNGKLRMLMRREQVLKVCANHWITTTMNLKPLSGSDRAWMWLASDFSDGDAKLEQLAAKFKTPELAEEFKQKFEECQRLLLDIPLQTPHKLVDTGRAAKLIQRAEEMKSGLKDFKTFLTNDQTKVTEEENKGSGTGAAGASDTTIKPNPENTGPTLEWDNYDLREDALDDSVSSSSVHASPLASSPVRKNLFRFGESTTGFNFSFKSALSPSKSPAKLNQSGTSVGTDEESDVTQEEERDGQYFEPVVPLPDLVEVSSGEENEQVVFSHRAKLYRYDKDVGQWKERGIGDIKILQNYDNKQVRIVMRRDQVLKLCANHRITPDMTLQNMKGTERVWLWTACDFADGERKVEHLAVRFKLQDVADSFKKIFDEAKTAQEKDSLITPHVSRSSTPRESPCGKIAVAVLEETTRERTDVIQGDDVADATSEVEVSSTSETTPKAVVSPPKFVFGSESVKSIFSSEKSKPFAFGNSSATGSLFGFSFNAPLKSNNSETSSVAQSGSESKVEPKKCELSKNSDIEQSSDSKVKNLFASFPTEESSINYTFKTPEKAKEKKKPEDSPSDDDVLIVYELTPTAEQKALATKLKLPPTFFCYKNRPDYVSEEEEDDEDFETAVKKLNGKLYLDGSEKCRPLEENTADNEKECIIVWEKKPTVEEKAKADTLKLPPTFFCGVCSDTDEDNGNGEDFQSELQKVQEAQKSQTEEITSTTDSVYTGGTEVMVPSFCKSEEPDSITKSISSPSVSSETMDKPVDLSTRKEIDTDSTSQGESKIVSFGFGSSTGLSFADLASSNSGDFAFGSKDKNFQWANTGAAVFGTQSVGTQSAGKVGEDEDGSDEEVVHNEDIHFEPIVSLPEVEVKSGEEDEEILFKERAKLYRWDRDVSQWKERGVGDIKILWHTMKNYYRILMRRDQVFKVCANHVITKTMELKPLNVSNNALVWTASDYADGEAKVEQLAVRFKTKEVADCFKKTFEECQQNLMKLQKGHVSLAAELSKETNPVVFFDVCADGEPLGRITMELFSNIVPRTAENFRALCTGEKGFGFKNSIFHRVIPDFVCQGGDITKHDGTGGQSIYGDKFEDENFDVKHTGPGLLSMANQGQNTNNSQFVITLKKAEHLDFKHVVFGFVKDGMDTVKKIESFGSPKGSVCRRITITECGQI
BPN (as used in supplementary Fig. S1A): residues 1-900 of P49792
UniProt Q9Z340: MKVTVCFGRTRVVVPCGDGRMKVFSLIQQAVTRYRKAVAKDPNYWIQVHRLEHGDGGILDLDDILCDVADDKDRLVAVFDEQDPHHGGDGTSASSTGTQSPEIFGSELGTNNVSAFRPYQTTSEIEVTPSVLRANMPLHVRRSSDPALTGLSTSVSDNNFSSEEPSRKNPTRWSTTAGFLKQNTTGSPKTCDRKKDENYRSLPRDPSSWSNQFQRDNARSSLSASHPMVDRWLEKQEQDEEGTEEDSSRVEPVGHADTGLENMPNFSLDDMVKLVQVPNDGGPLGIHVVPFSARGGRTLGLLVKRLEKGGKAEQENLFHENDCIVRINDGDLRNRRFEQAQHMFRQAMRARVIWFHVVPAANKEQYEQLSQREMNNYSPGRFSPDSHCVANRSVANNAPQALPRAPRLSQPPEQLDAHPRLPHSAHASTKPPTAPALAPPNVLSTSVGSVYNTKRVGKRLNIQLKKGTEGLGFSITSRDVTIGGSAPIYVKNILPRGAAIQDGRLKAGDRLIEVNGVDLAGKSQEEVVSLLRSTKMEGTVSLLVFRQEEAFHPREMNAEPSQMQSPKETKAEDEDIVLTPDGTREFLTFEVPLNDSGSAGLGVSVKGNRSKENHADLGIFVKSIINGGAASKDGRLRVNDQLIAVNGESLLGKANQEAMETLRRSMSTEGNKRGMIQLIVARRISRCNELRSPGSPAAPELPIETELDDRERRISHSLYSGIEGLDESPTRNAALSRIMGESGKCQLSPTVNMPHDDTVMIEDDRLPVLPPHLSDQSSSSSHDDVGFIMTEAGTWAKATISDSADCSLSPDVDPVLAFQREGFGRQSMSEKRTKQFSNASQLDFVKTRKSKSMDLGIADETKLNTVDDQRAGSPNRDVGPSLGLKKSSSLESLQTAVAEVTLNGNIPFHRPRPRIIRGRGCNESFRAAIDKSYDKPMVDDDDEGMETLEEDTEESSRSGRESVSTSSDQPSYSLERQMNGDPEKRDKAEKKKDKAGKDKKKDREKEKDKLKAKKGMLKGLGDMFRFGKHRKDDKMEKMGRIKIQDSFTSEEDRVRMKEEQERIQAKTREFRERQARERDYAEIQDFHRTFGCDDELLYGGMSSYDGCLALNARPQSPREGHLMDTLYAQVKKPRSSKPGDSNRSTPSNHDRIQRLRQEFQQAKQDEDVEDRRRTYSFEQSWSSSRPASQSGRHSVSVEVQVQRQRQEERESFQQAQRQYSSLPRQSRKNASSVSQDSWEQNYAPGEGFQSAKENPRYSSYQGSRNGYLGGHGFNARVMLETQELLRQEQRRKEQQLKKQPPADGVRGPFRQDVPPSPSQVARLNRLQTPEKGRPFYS

Legend:
[1] = molecular target: Nup358 (endogenous, HEK293T) (human (endogenous in HEK293T)) (UniProt P49792); experiment: co-IP; Nup358 with ectopically expressed PKCζ wild type or kinase dead, HA-Par3 or myc-Par6 (supplementary Fig. S2A-C); legends not shown
[2] = molecular target: T1, GFP-Dvl-M (Dvl1 211–425 amino acids) (mouse) (UniProt P51141); experiment: co-IP; co-expressed GFP-tagged and HA-tagged proteins; immunoprecipitation with anti-GFP antibodies; blot for GFP and HA; cytoskeleton extraction buffer, 2 hours at 4°C
T1 sequence: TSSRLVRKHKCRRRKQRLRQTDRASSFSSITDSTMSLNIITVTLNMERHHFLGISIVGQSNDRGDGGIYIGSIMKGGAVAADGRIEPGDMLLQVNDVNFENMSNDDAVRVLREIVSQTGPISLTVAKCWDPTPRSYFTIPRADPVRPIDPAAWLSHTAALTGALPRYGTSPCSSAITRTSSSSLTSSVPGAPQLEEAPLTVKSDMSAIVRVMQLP

HA-PKCζ (human) = molecular target: T2, HA-PKCζ (human) (UniProt Q05513); experiment: co-IP; cells co-transfected with HA-PKCζ and GFP-tagged BPN, BPM or BPC; immunoprecipitation with EZview HA beads (EZview control beads as control); immunoblot
T2 sequence: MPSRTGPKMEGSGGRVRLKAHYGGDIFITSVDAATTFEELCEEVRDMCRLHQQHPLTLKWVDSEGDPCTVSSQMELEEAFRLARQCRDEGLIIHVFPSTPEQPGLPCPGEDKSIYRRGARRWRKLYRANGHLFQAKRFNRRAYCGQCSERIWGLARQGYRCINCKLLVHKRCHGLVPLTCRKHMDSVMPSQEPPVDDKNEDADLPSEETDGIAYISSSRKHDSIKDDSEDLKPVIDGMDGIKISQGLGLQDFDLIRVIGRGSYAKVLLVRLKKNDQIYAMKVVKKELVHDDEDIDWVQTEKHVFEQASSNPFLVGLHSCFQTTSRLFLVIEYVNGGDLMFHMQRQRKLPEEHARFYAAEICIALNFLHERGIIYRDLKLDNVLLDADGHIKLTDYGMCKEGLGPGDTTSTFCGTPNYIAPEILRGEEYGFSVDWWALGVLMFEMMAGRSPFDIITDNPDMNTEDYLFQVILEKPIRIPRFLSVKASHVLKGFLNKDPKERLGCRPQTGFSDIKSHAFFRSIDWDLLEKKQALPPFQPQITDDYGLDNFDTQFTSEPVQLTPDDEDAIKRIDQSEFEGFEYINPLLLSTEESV

[3] = molecular target: GFP-BPN (Nup358 N-terminus, 1–900 amino acids) (human) (UniProt P49792); experiment: co-IP; co-expressed GFP-tagged and HA-tagged proteins; immunoprecipitation with anti-GFP antibodies; blot for GFP and HA; cytoskeleton extraction buffer, 2 hours at 4°C
[4] = molecular target: Nup358 (endogenous, HEK293T) (human (endogenous in HEK293T)) (UniProt P49792); experiment: co-IP; endogenous Nup358 immunoprecipitated with rabbit polyclonal anti-Nup358 (control rabbit IgG) from lysate of HEK293T cells, untransfected or expressing an HA-tagged partner; cytoskeleton extraction buffer (10 mM Tris-HCl pH 7.4, 100 mM NaCl, 1% Triton X-100, 0.1% SDS, 0.5% deoxycholate), 2 hours at 4°C; western blot
[5] = substrate: BPN (as used in supplementary Fig. S1A) (human) (UniProt P49792); experiment: co-IP; Dvl2 and its deletion mutants with BPN (supplementary Fig. S1A); legend not shown

HA-Par3 (rat Par3 homolog ASIP) (from UniProt Q9Z340 1-1337)
binding [1]: binds

HA-BPN (from UniProt P49792 1-900) (domain or fragment)
binding [2]: binds

GFP-BPC (Nup358 C terminus, 2220–3224 amino acids) (from UniProt P49792 2220-3224) (domain or fragment)
binding (HA-PKCζ (human)): binds weakly

GFP-BPN (Nup358 N-terminus, 1–900 amino acids) (from UniProt P49792 1-900) (domain or fragment)
binding (HA-PKCζ (human)): binds

B1: HA-tagged Dvl1 (protein, UniProt P51141 1-695)
chain: MAETKIIYHMDEEETPYLVKLPVAPERVTLADFKNVLSNRPVHAYKFFFKSMDQDFGVVKEEIFDDNAKLPCFNGRVVSWLVLAEGAHSDAGSQGTDSHTDLPPPLERTGGIGDSRPPSFHPNVASSRDGMDNETGTESMVSHRRERARRRNRDEAARTNGHPRGDRRRDLGLPPDSASTVLSSELESSSFIDSDEEDNTSRLSSSTEQSTSSRLVRKHKCRRRKQRLRQTDRASSFSSITDSTMSLNIITVTLNMERHHFLGISIVGQSNDRGDGGIYIGSIMKGGAVAADGRIEPGDMLLQVNDVNFENMSNDDAVRVLREIVSQTGPISLTVAKCWDPTPRSYFTIPRADPVRPIDPAAWLSHTAALTGALPRYGTSPCSSAITRTSSSSLTSSVPGAPQLEEAPLTVKSDMSAIVRVMQLPDSGLEIRDRMWLKITIANAVIGADVVDWLYTHVEGFKERREARKYASSMLKHGFLRHTVNKITFSEQCYYVFGDLCSNLASLNLNSGSSGASDQDTLAPLPHPSVPWPLGQGYPYQYPGPPPCFPPAYQDPGFSCGSGSAGSQQSEGSKSSGSTRSSHRTPGREERRATGAGGSGSESDHTVPSGSGSTGWWERPVSQLSRGSSPRSQASAVAPGLPPLHPLTKAYAVVGGPPGGPPVRELAAVPPELTGSRQSFQKAMGNPCEFFVDIM
binding [3]: binds | binding [4]: binds

B2: myc-Par6 (hPAR6C) (protein, UniProt Q9NPB6 1-346)
chain: MARPQRTPARSPDSIVEVKSKFDAEFRRFALPRASVSGFQEFSRLLRAVHQIPGLDVLLGYTDAHGDLLPLTNDDSLHRALASGPPPLRLLVQKRAEADSSGLAFASNSLQRRKKGLLLRPVAPLRTRPPLLISLPQDFRQVSSVIDVDLLPETHRRVRLHKHGSDRPLGFYIRDGMSVRVAPQGLERVPGIFISRLVRGGLAESTGLLAVSDEILEVNGIEVAGKTLDQVTDMMVANSHNLIVTVKPANQRNNVVRGASGRLTGPPSAGPGPAEPDSDDDSSDLVIENRQPPSSNGLSQGPPCWDLHPGCRHPGTRSSLPSLDDQEQASSGWGSRIRGDGSGFSL
binding [1]: binds

B3: HA-PKCζ-C (236–592 amino acids) (domain or fragment, UniProt Q05513 236-592)
chain: DGMDGIKISQGLGLQDFDLIRVIGRGSYAKVLLVRLKKNDQIYAMKVVKKELVHDDEDIDWVQTEKHVFEQASSNPFLVGLHSCFQTTSRLFLVIEYVNGGDLMFHMQRQRKLPEEHARFYAAEICIALNFLHERGIIYRDLKLDNVLLDADGHIKLTDYGMCKEGLGPGDTTSTFCGTPNYIAPEILRGEEYGFSVDWWALGVLMFEMMAGRSPFDIITDNPDMNTEDYLFQVILEKPIRIPRFLSVKASHVLKGFLNKDPKERLGCRPQTGFSDIKSHAFFRSIDWDLLEKKQALPPFQPQITDDYGLDNFDTQFTSEPVQLTPDDEDAIKRIDQSEFEGFEYINPLLLSTEESV
binding [4]: binds

B4: Mouse Dvl2 (protein, UniProt Q60838 1-736)
chain: MAGSSAGGGGVGETKVIYHLDEEETPYLVKIPVPAERITLGDFKSVLQRPAGAKYFFKSMDQDFGVVKEEISDDNARLPCFNGRVVSWLVSSDTPQPEVAPPAHESRTELVPPPPPLPPLPPERTSGIGDSRPPSFHPNVSSSHENLEPETETESVVSLRRDRPRRRDSSEHGAGGHRPGGPSRLERHLAGYESSSTLMTSELESTSLGDSDEDDTMSRFSSSTEQSSASRLLKRHRRRRKQRPPRMERTSSFSSVTDSTMSLNIITVTLNMEKYNFLGISIVGQSNERGDGGIYIGSIMKGGAVAADGRIEPGDMLLQVNDMNFENMSNDDAVRVLRDIVHKPGPIVLTVAKCWDPSPQAYFTLPRNEPIQPIDPAAWVSHSAALTGAFPAYPGSSSMSTITSGSSLPDGCEGRGLSVHMDMASVTKAMAAPESGLEVRDRMWLKITIPNAFLGSDVVDWLYHHVEGFPERREARKYASGLLKAGLIRHTVNKITFSEQCYYVFGDLSGGCESYLVNLSLNDNDGSSGASDQDTLAPLPGATPWPLLPTFSYQYPAPHPYSPQPPPYHELSSYTYGGGSASSQHSEGSRSSGSTRSDGGAGRTGRPEERAPESKSGSGSESELSSRGGSLRRGGEPGGTGDGGPPPSRGSTGAPPNLRALPGLHPYGAPSGMALPYNPMMVVMMPPPPPPVSTAVQPPGAPPVRDLGSVPPELTASRQSFHMAMGNPSEFFVDVM
binding [5]: binds

B5: aPKC (PKCζ), endogenous, HEK293T (enzyme, UniProt Q05513 1-592)
chain: T2 sequence
binding [4]: binds

B6: PKCζ wild type (as used in supplementary Fig. S2A) (enzyme, UniProt Q05513 1-592)
chain: T2 sequence
binding [1]: binds
